Reference: PubChem BioAssay AID1259415 (National Center for Advancing Translational Sciences (NCATS), 2018)
“And” between values parts separate entries of the source, which are not always exact repeats. Equal values may be shown once. Out of some 410,000 compounds screened, about 18,000 (4.4%) were called active. The shares of active, inactive and inconclusive entries below differ from those in the screen. No stated cut-off is given here; in the data, active means activity change below about -60%; inconclusive means no clear call, values can overlap the other calls; inactive means above about -39%.

Experiment: qHTS Assay for inhibitors of the human cytomegalovirus (HCMV)
Conditions: HFF cells, HCMV-luciferase reporter, 72 h; at 57.5 µM; stronger effect = lower value
In short: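 Inhibition of viral replication was scored as loss of reporter luminescence in HFFs infected with HCMV-luciferase (MOI 1 PFU/cell) for 72 h; compounds tested at 2 doses, normalized to buffer and Salinomycin controls.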
On the % scale 0 is the no-effect control and ±100 the full control effect.

Compound	activity change, negative = inhibition
CCOC(=O)CSC(=S)NC(=O)c1ccc(OC)cc1	active: -86.9%
COc1ccc(Cn2nnnc2C(c2ccc(N(C)C)cc2)N2CCC(C(N)=O)CC2)cc1 (centres undefined)	inconclusive: -40.3%
O=[N+]([O-])c1ccc(N2CCN(c3ccc([N+](=O)[O-])cc3CO)CC2)c(CO)c1	active: -66.1%
Cc1ccc(NC(=O)c2ccccc2-c2ccccc2C(=O)O)cc1C	inconclusive: -46.2%
CCOc1ccc(C2CC(=O)NC(NC(=O)c3cccc(Cl)c3)=N2)cc1 (centres undefined)	inactive: 93.2%
COc1nnc(-c2ccc(N3CCOCC3)c(NC(=O)C3CCCCC3)c2)c2ccccc12	inconclusive: -42%
COc1ccccc1CNC(=O)CCCn1c(=O)c2ccccc2n(Cc2ccc(F)cc2)c1=O	inconclusive: -45.1%
COc1ccccc1NC(=O)c1c(C)cc(C)nc1SCC(=O)Nc1ccc(C)c(C)c1	inconclusive: -54.8%
C#CCOCCOCCOCCNc1nc(N2CCN(C(=O)[C@H]([C@@H](C)CC)n3cc(CCCCN)nn3)CC2)nc(N2CCN(C(=O)[C@H](C)n3cc(CCCN=C(N)N)nn3)CC2)n1	inactive: -12.9%
COc1cc(C2c3c(oc4ccccc4c3=O)C(=O)N2c2ccc(C)cn2)ccc1O (centres undefined)	inconclusive: -49.2%
CCNC(=S)N/N=C/c1cccc(OCc2c(F)cccc2Cl)c1	inconclusive: -42%
CC(=O)Nc1nc(-c2ccc3c(c2)CCN3C(=O)C2CC2)c(C)s1	active: -97.9%
Nc1ccc(C(=O)NC2CCSc3ccccc32)cc1[N+](=O)[O-] (centres undefined)	inactive: 7.53%
CCOC(=O)C1CCCN(C(=O)COc2ccc(S(=O)(=O)N3CCOCC3)cc2)C1 (centres undefined)	inactive: -15.8%
O=C(Nc1ccc(F)cc1)C1CCN(C(=O)c2ccc([N+](=O)[O-])cc2)CC1	inconclusive: -51%
CC(=O)/C(N=Nc1ccc2c(c1)OCCO2)=C(\C)O	active: -70.7%
N#C/C(=C(/O)COC(=O)COc1ccc(Cl)cc1)c1nc2ccccc2[nH]1	active: -101%
Cc1cccc(N/N=C(\C#N)S(=O)(=O)C(C)(C)C)c1	inactive: 8.07%
CCc1nnc(SC(CC)C(=O)Nc2ccc(OC)c(Cl)c2)c2cc3occc3n12 (centres undefined)	inconclusive: -47.3%
CN(C)S(=O)(=O)c1ccc(Cl)c(NC(=O)CNC2(C)CCS(=O)(=O)C2)c1 (centres undefined)	inactive: 4.7%
CCCOc1ccc([N+](=O)[O-])cc1C1NC(=S)NC(c2ccccc2)=C1C(=O)OCC (centres undefined)	inconclusive: -54.1%
Cc1cccc(C(=O)NC(C(=O)Nc2nc(-c3ccccn3)cs2)C(C)C)c1 (centres undefined)	inconclusive: -48.3%
Cc1cccc2sc(N(CCCN(C)C)C(=O)c3nc4ccccc4s3)nc12	inconclusive: -45.1%
CCc1cccc(C)c1NC(=O)C1CCN(S(=O)(=O)c2c(C)noc2/C=C/c2c(C)cc(C)cc2C)CC1	inconclusive: -51.1%
COc1ccc(Nc2nccc(-c3ccc(C#N)cc3)n2)cc1	inactive: -29.3%
CCC(C)(C)C1CCc2[nH]nc(C(=O)NCC3CC3)c2C1 (centres undefined)	inactive: -16.3%
COc1c(C)cc(C(=O)C2CCCN(Cc3ccccn3)C2)cc1C (centres undefined)	active: -65.2%

Compound	activity change, negative = inhibition
COc1ccc(OCc2nnc(SCC(=O)N3CCCCC3)o2)cc1	inactive: -14.8%
COc1ccc(CN(C)CC(=O)c2c(N)n(Cc3ccccc3)c(=O)n(C)c2=O)c(OC)c1	inconclusive: -42.9%
Cc1nc(NC(=O)CC(C)C)sc1-c1csc(Nc2ccc(Cl)cc2Cl)n1	inconclusive: -45.4%
O=C(Nc1ccc(OC(F)(F)F)cc1)c1[nH]ncc1[N+](=O)[O-]	inconclusive: -58.2%
FC(F)(F)C(F)(F)c1nnc2ccc(-n3ccnc3)nn12	inactive: -16.6%
Cc1cc(C)c[n+](CC(=O)c2ccc(-c3ccccc3)cc2)c1	active: -76.5%
FC(F)(F)c1cccc(Nc2nc3nonc3nc2Nc2ccc(Cl)cc2)c1	active: -98%
CCN(CC)C(=O)C(=O)c1cn(CCOc2ccccc2)c2ccccc12	inconclusive: -47.9%
N#C/C(=C\c1c[nH]c2ccccc12)C(=O)NCC1CCCO1 (centres undefined)	inconclusive: -50.2%
Cn1c(=O)c2cc(NC(=O)NCCc3ccccc3)ccc2n1Cc1ccc(F)cc1	inconclusive: -40.5%
O=C(Cc1cc(C(F)(F)F)cc(C(F)(F)F)c1)Nc1c(-c2ccccc2)[nH][nH]c1=O	inactive: 5.54%
CCN(CC)CCC(=O)Nc1cccc2c1C(=O)c1ccccc1C2=O	active: -99.2%
CCOc1ccccc1-c1n[nH]c(=S)o1	inactive: 117%
COc1ccc(-n2[nH]c3c(cnc4ccccc43)c2=O)cc1	inactive: -3.64%
Cn1cc(S(=O)(=O)N2CCCC2)cc1C(=O)Nc1ccc(F)cc1F	inconclusive: -41.3%
COc1cccc(CNC(=O)CN2C(=O)COc3ccc(S(=O)(=O)N4CCCCC4)cc32)c1	inactive: -23.5% and inactive: 9.33%
CCOc1ccc2oc(C(=O)OCC(=O)N3CCCC(C)C3)c(C)c2c1 (centres undefined)	inconclusive: -43.9%
Cc1nn(Cc2ccc(F)cc2)c(C)c1NC(=O)c1noc2c1CCc1ccccc1-2	inconclusive: -44.8%
CCCc1cc(=O)[nH]c(Nc2cc(Cl)cc(Cl)c2)n1	active: -106%
CC(=O)NS(=O)(=O)c1ccc(NC(=O)c2cc(-c3cccs3)nc3ccccc23)cc1	inconclusive: -54.8%
Cn1c(=O)c2c(nc(NCc3ccco3)n2CCc2ccccc2)n(C)c1=O	inconclusive: -44.1%
CN(Cc1ccccc1)C(=O)[C@@H]1CCCN1S(=O)(=O)c1ccc(Cl)cc1	inconclusive: -43.3%
C=CCCC(=O)N1CCCC(C(=O)c2cccc(OC)c2)C1 (centres undefined)	inactive: -24.5%
Cc1nonc1NC(=O)CSc1cn[nH]n1	inconclusive: -49.6%
CCOC(=O)Nc1cc(=O)c([N+](=O)[O-])c(N)[nH]1	inactive: 9.52%
Cc1cc(C)c(OCC(=O)NCC(c2ccco2)N2CCCCC2)c(C)c1 (centres undefined)	inconclusive: -53.7%
CC(=O)OCCN(C)c1cc(SC(C)C)c2nonc2c1[N+](=O)[O-]	inconclusive: -47.9%

Structures listed so far that contain a cyano group:
Compound	activity change, negative = inhibition
N#C/C(=C(/O)COC(=O)COc1ccc(Cl)cc1)c1nc2ccccc2[nH]1	active: -101%
Cc1cccc(N/N=C(\C#N)S(=O)(=O)C(C)(C)C)c1	inactive: 8.07%
COc1ccc(Nc2nccc(-c3ccc(C#N)cc3)n2)cc1	inactive: -29.3%
N#C/C(=C\c1c[nH]c2ccccc12)C(=O)NCC1CCCO1 (centres undefined)	inconclusive: -50.2%
